Data reported in patent US20080207645A1, “Pyridothienopyrimidine Derivatives” (priority 2004, published 2008).
Some entries share one result that the patent states for a list of compounds. At least one compound was matched to its structure with a doubt left.

What follows are compounds tested on PDE4 (assay: PDE4 Assay Procedure ([3H]-cAMP SPA)).
Type: biochemical
Description: Compounds to be tested were resuspended in DMSO at a stock concentration of 1 mM. […] These dilutions were done in 96-well plates. In some cases, plates containing diluted compounds were frozen before being assayed. In these cases, the plates were thawed at room temperature and stirred for 15 minutes.
Ten microliters of the diluted compounds were poured into a “low binding” assay plate. […] The reaction was initiated by adding ten microliters of a solution containing PDE4. The plate was then incubated under stirring for 1 hour at room temperature. After incubation the reaction was stopped with 50 microlitres of SPA beads, and the reaction was allowed to incubate for another 20 minutes at room temperature before measuring radioactivity using standard instrumentation.
The reaction mixture was prepared by adding 90 ml of H2O to 10 ml of 10× assay buffer (500 mM Tris pH 7.5, 83 mM MgCl2, 17 mM EGTA), and 40 microlitres 1 μCi/μL [3H]-cAMP. SPA beads solution was prepared by adding 500 mg to […] H2O for a final concentration of 20 mg/ml beads and 18 mM zinc sulphate.

Row | Compound | activity as inhibitors of phosphodiesterase 4
1 | CCN(CC)c1ncnc2c1sc1nc(N3CCOCC3)c3c(c12)CC(C)(C)OC3 [Example 10, 2,2-Dimethyl-5-morpholin-4-yl-N,N-diethyl-1,4-dihydro-2H-pyrano[4″,3″:4′,5′]pyrido[3′,2′:4,5]thieno[3,2-d]pyrimidin-8-amine] | showing activity as inhibitors of phosphodiesterase 4
2 | CC1(C)Cc2c(c(N3CCOCC3)nc3sc4c(NCC5CCCO5)ncnc4c23)CO1 (stereo not shown) [Example 5, 2,2-Dimethyl-5-morpholin-4-yl-N-(2-tetrahydrofurylmethyl)-1,4-dihydro-2H-pyrano[4″,3″:4′,5′]pyrido[3′,2′:4,5]thieno[3,2-d]pyrimidin-8-amine] | showing activity as inhibitors of phosphodiesterase 4
3 | CC(C)c1nc2sc3c(NCc4ccco4)ncnc3c2c2c1COC(C)(C)C2 [Example 47, 2,2-Dimethyl-5-isopropyl-N-(2-furylmethyl)-1,4-dihydro-2H-pyrano[4″,3″:4′,5′]pyrido[3′,2′:4,5]thieno[3,2-d]pyrimidin-8-amine] | showing activity as inhibitors of phosphodiesterase 4
4 | CCC1(C)Cc2c(c(N3CCOCC3)nc3sc4c(NCCN5CCOCC5)ncnc4c23)CO1 (stereo not shown) [Example 39, 2-ethyl-2-methyl-5-morpholin-4-yl-N-(2-morpholin-4-ylethyl)-1,4-dihydro-2H-pyrano[4″,3″:4′,5′]pyrido[3′,2′:4,5]thieno[3,2-d]pyrimidin-8-amine] | showing activity as inhibitors of phosphodiesterase 4
5 | C=CCNc1ncnc2c1sc1nc(N3CCOCC3)c3c(c12)CC(C)(C)OC3 [Example 14, 2,2-Dimethyl-5-morpholin-4-yl-N-allyl-1,4-dihydro-2H-pyrano[4″,3″:4′,5′]pyrido[3′,2′:4,5]thieno[3,2-d]pyrimidin-8-amine] | showing activity as inhibitors of phosphodiesterase 4
6 | CC1(C)Cc2c(c(-c3ccco3)nc3sc4c(NCc5cccnc5)ncnc4c23)CO1 [Example 42, 5-(2-Furyl)-2,2-dimethyl-N-(pyridin-3-ylmethyl)-1,4-dihydro-2H-pyrano[4″,3″:4′,5′]pyrido[3′,2′:4,5]thieno[3,2-d]pyrimidin-8-amine] | showing activity as inhibitors of phosphodiesterase 4
7 | CCCCCNc1ncnc2c1sc1nc(N3CCOCC3)c3c(c12)CC(C)(C)OC3 [Example 12, 2,2-Dimethyl-5-morpholin-4-yl-N-pentyl-1,4-dihydro-2H-pyrano[4″,3″:4′,5′]pyrido[3′,2′:4,5]thieno[3,2-d]pyrimidin-8-amine] | showing activity as inhibitors of phosphodiesterase 4
8 | CC(C)Cc1nc2sc3c(NCc4ccco4)ncnc3c2c2c1COC(C)(C)C2 [Example 45, 2,2-Diemthyl-5-isobutyl-N-(2-furylmethyl)-1,4-dihydro-2H-pyrano[4″,3″:4′,5′]pyrido[3′,2′:4,5]thieno[3,2-d]pyrimidin-8-amine] | showing activity as inhibitors of phosphodiesterase 4
9 | 2,2-Dimethyl-5-phenyl-4-yl-N-(2-dimethylaminoethyl)-1,4-dihydro-2H-pyrano[4″,3″:4′,5′]pyrido[3′,2′:4,5]thieno[3,2-d]pyrimidin-8-amine [Example 18] | showing activity as inhibitors of phosphodiesterase 4
10 | CC1CCN(Nc2ncnc3c2sc2nc(N4CCOCC4)c4c(c23)CC(C)(C)OC4)CC1 [Example 2, 2,2-Dimethyl-5-morpholin-4-yl-N-(4-methylpiperidin-1-yl)-1,4-dihydro-2H-pyrano[4″,3″:4′,5′]pyrido[3′,2′:4,5]thieno[3,2-d]pyrimidin-8-amine] | showing activity as inhibitors of phosphodiesterase 4
11 | CC1(C)Cc2c(c(N3CCOCC3)nc3sc4c(Nc5ccccn5)ncnc4c23)CO1 [Example 19, 2,2-Dimethyl-5-morpholin-4-yl-N-(pyridin-2-yl)-1,4-dihydro-2H-pyrano[4″,3″:4′,5′]pyrido[3′,2′:4,5]thieno[3,2-d]pyrimidin-8-amine] | showing activity as inhibitors of phosphodiesterase 4
12 | CCCc1nc2sc3c(NCCCO)ncnc3c2c2c1COC(C)(C)C2 [Example 15, 2,2-Dimethyl-5-propyl-N-(3-hydroxypropyl)-1,4-dihydro-2H-pyrano[4″,3″:4′,5′]pyrido[3′,2′:4,5]thieno[3,2-d]pyrimidin-8-amine] | showing activity as inhibitors of phosphodiesterase 4
13 | CC1(C)Cc2c(c(-c3ccco3)nc3sc4c(NCc5ccccn5)ncnc4c23)CO1 [Example 52, 5-(2-Furyl)-2,2-dimethyl-N-(pyridin-2-ylmethyl)-1,4-dihydro-2H-pyrano[4″,3″:4′,5′]pyrido[3′,2′:4,5]thieno[3,2-d]pyrimidin-8-amine] | showing activity as inhibitors of phosphodiesterase 4
14 | CCCc1nc2sc3c(NCCN4CCOCC4)ncnc3c2c2c1COC(C)(C)C2 [Example 38, 2,2-dimethyl-N-(2-morpholin-4-ylethyl)-5-propyl-1,4-dihydro-2H-pyrano[4″,3″:4′,5′]pyrido[3′,2′:4,5]thieno[3,2-d]pyrimidin-8-amine] | showing activity as inhibitors of phosphodiesterase 4
15 | CC1(C)Cc2c(c(N3CCCC3)nc3sc4c(NCc5ccccc5)ncnc4c23)CO1 [Example 24, 2,2-Dimethyl-5-pyrrolidin-1-yl-N-benzyl-1,4-dihydro-2H-pyrano[4″,3″:4′,5′]pyrido[3′,2′:4,5]thieno[3,2-d]pyrimidin-8-amine] | showing activity as inhibitors of phosphodiesterase 4
16 | CC1(C)Cc2c(c(N3CCCC3)nc3sc4c(NC5CCCO5)ncnc4c23)CO1 (stereo not shown) [Example 34, 2,2-Dimethyl-5-pyrrolidin-1-yl-N-tetrahydrofuran-2-yl-1,4-dihydro-2H-pyrano[4″,3″:4′,5′]pyrido[3′,2′:4,5]thieno[3,2-d]pyrimidin-8-amine] | showing activity as inhibitors of phosphodiesterase 4
17 | Cc1nc2sc3c(NCc4ccccn4)ncnc3c2c2c1COC(C)(C)C2 [Example 49, 2,2-Dimethyl-5-methyl-N-(pyridin-2-ylmethyl)-1,4-dihydro-2H-pyrano[4″,3″:4′,5′]pyrido[3′,2′:4,5]thieno[3,2-d]pyrimidin-8-amine] | showing activity as inhibitors of phosphodiesterase 4
18 | CC1(C)Cc2c(c(N3CCCC3)nc3sc4c(NCCN5CCOCC5)ncnc4c23)CO1 [Example 27, 2,2-Dimethyl-5-pyrrolidin-1-yl-N-(2-morpholin-4-ylethyl)-1,4-dihydro-2H-pyrano[4″,3″:4′,5′]pyrido[3′,2′:4,5]thieno[3,2-d]pyrimidin-8-amine] | showing activity as inhibitors of phosphodiesterase 4
19 | CC(O)CNc1ncnc2c1sc1nc(C(C)C)c3c(c12)CC(C)(C)OC3 (stereo not shown) [Example 54, 1-[(5-Isopropyl-2,2-dimethyl-1,4-dihydro-2H-pyrano[4″,3″:4′,5′]pyrido[3′,2′:4,5]thieno[3,2-d]pyrimidin-8-yl)amino]propan-2-ol] | showing activity as inhibitors of phosphodiesterase 4
20 | CC1(C)Cc2c(c(N3CCOCC3)nc3sc4c(NCc5ccco5)ncnc4c23)CO1 [Example 28, 2,2-Dimethyl-5-morpholin-4-yl-N-furan-2-ylmethyl-1,4-dihydro-2H-pyrano[4″,3″:4′,5′]pyrido[3′,2′:4,5]thieno[3,2-d]pyrimidin-8-amine] | showing activity as inhibitors of phosphodiesterase 4
21 | CC1(C)Cc2c(c(-c3ccco3)nc3sc4c(NCCN5CCOCC5)ncnc4c23)CO1 [Example 23, 2,2-Dimethyl-5-furan-2-yl-N-(2-morpholin-4-ylethyl)-1,4-dihydro-2H-pyrano[4″,3″:4′,5′]pyrido[3′,2′:4,5]thieno[3,2-d]pyrimidin-8-amine] | showing activity as inhibitors of phosphodiesterase 4
22 | CC(C)Cc1nc2sc3c(NCCN4CCOCC4)ncnc3c2c2c1COC(C)(C)C2 [Example 22, 2,2-Dimethyl-5-isobutyl-4-yl-N-(2-morpholin-4-ylethyl)-1,4-dihydro-2H-pyrano[4″,3″:4′,5′]pyrido[3′,2′:4,5]thieno[3,2-d]pyrimidin-8-amine] | showing activity as inhibitors of phosphodiesterase 4
23 | COc1ccc(CCNc2ncnc3c2sc2nc(C(C)C)c4c(c23)CC(C)(C)OC4)cc1OC [Example 53, N-[2-(3,4-Dimethoxyphenyl)ethyl]-2,2-dimethyl-5-isopropyl-1,4-dihydro-2H-pyrano[4″,3″:4′,5′]pyrido[3′,2′:4,5]thieno[3,2-d]pyrimidin-8-amine] | showing activity as inhibitors of phosphodiesterase 4
24 | CC1(C)Cc2c(c(N3CCOCC3)nc3sc4c(NNc5ccccc5)ncnc4c23)CO1 [Example 11, 2,2-Dimethyl-5-morpholin-4-yl-8-(2-phenylhydrazino)-1,4-dihydro-2H-pyrano[4″,3″:4′,5′]pyrido[3′,2′:4,5]thieno[3,2-d]pyrimidine] | showing activity as inhibitors of phosphodiesterase 4
25 | CCN(CC)CCNc1ncnc2c1sc1nc(N3CCOCC3)c3c(c12)CC(C)(C)OC3 [Example 3, 2,2-Dimethyl-5-morpholin-4-yl-N-(2-diethylaminoethyl)-1,4-dihydro-2H-pyrano[4″,3″:4′,5′]pyrido[3′,2′:4,5]thieno[3,2-d]pyrimidin-8-amine] | showing activity as inhibitors of phosphodiesterase 4
